Measurements: patent publication US7619005B2, “Methods for treating cognitive impairment in humans with Multiple Sclerosis” (Cognition Pharmaceuticals LLC, priority 2000, dated 2009)
“And” between values parts separate entries of the source, which are not always exact repeats. Identical values can stand only once. This continues a long series; more values of the same kind are listed elsewhere.

System: rats
Assay: Inhibitory Avoidance task, normal rats
Details: Control rats, each animal (Table 7)

What does the source list for “(−)-1-methyl-2-phenylethylamine sulfate (2:1) [C105]”?
latency to enter the dark side of the apparatus (0.5 mg/kg): 577.0 seconds and 28.0 seconds (2×) and 93.0 seconds and 162.0 seconds; latency to enter the dark side of the apparatus (1.0 mg/kg): 317.0 seconds and 26.0 seconds (2×) and 48.0 seconds and 56.0 seconds; latency to enter the dark side of the apparatus (2.0 mg/kg): 581.0 s and 21.0 s and 25.0 s and 41.0 s and 84.0 s; latency to enter the dark side of the apparatus (4.0 mg/kg): 208.0 seconds and 21.0 seconds and 36.0 seconds and 64.0 seconds (2×)
